Measured values from PubChem BioAssay AID2685 (National Center for Advancing Translational Sciences (NCATS), 2010).
The list shows a part of the results. Further columns of the screen follow, without active or inactive calls. Compounds called inactive in the main read-out are mostly missing here. Words in brackets tell the shape of the fitted curve; partial curves, single points and poor fits give uncertain potencies.

Assay: qHTS Assay for Lipid Storage Modulators in Drosophila S3 Cells;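 as to cell number change: cells counted by Cell Tracker Red CMTPX staining in the red channel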
Conditions: BODIPY lipid droplet fluorescence, 18-24 h; for cell number change: measured here: cell count max response, cells fed with added oleic acid
Method in brief: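 Drosophila S3 cells got compounds at several concentrations plus oleic acid (400 uM solution). Laser-scanning cytometry with 488 nm excitation read lipid droplets at 500-530 nm and cells at 575-640 nm. Percent activity was relative to 20 uM Triacsin C.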

[1] = measured here: lipid fluorescence (Fed channel) AC50, cells fed with added oleic acid
[2] = measured here: cell number channel AC50, cells fed with added oleic acid

Row | SMILES | cell number change [%] | AC50 [1] | AC50 [2]
1 | COc1ccc(NC(=O)CSc2nnc(C3CCCCC3)n2N)cc1OC | 17.3 | – | –
2 | CCOc1ccc(/C(O)=C2/C(=O)C(=O)N(c3ncccn3)C2c2ccc(Cl)cc2)cc1 (stereo not given) | -26.2 | 10.3 µM [falling, partial curve] | –
3 | CCCNC(=O)CCc1c(C)nc2c(c(C)nn2-c2ccccc2)c1C | 26.8 | 13 µM [rising, partial curve, poor fit] | –
4 | N#CC1=C(N)Oc2n[nH]c(-c3ccc(F)cc3)c2C1c1cccc(OC(=O)N2CCOCC2)c1 (stereo not given) | 0.388 | – | –
5 | CCN1CCN(C(=O)c2cc(=O)c3cc(C)ccc3o2)CC1 | -14.4 | – | –
6 | CCCCc1nc2cc(C(=O)N3CCCCC3COC)ccc2o1 (stereo not given) | 5.45 | 6.51 µM [falling, single point] | –
7 | COc1cccc(NC(=O)Cn2nc(Cc3cccnc3)c3ccccc3c2=O)c1 | -8.24 | – | 0.164 µM [rising, full curve]
8 | COc1cc2c(cc1OC)C1=C(C#N)COCN1CC2 | 6.89 | 1.84 µM [rising, single point] | –
9 | CCOc1ccc(NC(=O)CSc2nnc(Cc3ccccc3)c(=O)n2N)cc1 | – | 2.59 µM [falling, full curve, poor fit] | –
10 | Cc1ccc(OCCn2nc3ccccc3n2)c(C)c1 | – | 3.26 µM [rising, single point] | –
11 | S=c1[nH]nc(-c2cccnc2)n1/N=C/C(Cl)=C\c1ccccc1 | -25.2 | – | 0.00461 µM [falling, full curve, poor fit]
12 | CC(C)C(C(=O)Nc1ccc2c(c1)OCCO2)N1C(=O)c2ccccc2C1=O (stereo not given) | -78.4 | – | 29.1 µM [falling, single point]
13 | COC(=O)c1ccc(NC(=O)CSCc2ccc(C)cc2)cc1 | -6.19 | 5.17 µM [falling, single point] | 0.00461 µM [falling, full curve, poor fit]
14 | O=C(O)CN1C(=O)C2(OCCCO2)c2ccccc21 | -21.1 | – | 0.411 µM [falling, full curve, poor fit]
15 | COc1cc(N=Cc2c(CO)cnc(C)c2O)cc(OC)c1OC | -8.99 | 29.1 µM [rising, single point] | –
16 | CCNC(=O)CSC1=N/C(=C\c2ccc(O)c(OCC)c2)C(=O)N1c1ccc(OC(F)F)cc1 | 40.8 | – | 29.1 µM [rising, single point]
17 | CC(=O)N/C(=C\c1ccccc1)C(=O)OCC(=O)NC(C)C12CC3CC(CC(C3)C1)C2 (stereo not given) | -1.08 | 29.1 µM [falling, single point] | –
18 | O=C(NC1CCCCC1)C1CC(=O)N(CCc2ccccc2)C1 (stereo not given) | 17.2 | – | –
19 | CN(C(=O)CSc1nnc(COc2ccccc2F)n1N)C1CCCCC1 | -14.1 | 6.51 µM [rising, single point] | –
20 | CCCn1c(N)c(N(CCOC)C(=O)c2ccc(Cl)c([N+](=O)[O-])c2)c(=O)[nH]c1=O | 4.2 | – | –
21 | CCOC(=O)c1c(-c2cccc([N+](=O)[O-])c2)csc1NC(=O)C1CC1 | -10.7 | – | –

Another view of part of the listing above.

| Row | SMILES | cell number change [%] | AC50 [1] | AC50 [2] |
| --- | --- | --- | --- | --- |
| 2 | CCOc1ccc(/C(O)=C2/C(=O)C(=O)N(c3ncccn3)C2c2ccc(Cl)cc2)cc1 (stereo not given) | -26.2 | 10.3 µM [falling, partial curve] | – |
| 4 | N#CC1=C(N)Oc2n[nH]c(-c3ccc(F)cc3)c2C1c1cccc(OC(=O)N2CCOCC2)c1 (stereo not given) | 0.388 | – | – |
| 8 | COc1cc2c(cc1OC)C1=C(C#N)COCN1CC2 | 6.89 | 1.84 µM [rising, single point] | – |

Further results

Row | SMILES | cell number change [%] | AC50 [1] | AC50 [2]
22 | COc1ccc(NC(=S)NCc2ccc(F)cc2)c(OC)c1 | 5.84 | – | 0.0116 µM [rising, full curve, poor fit]
23 | CN(C)S(=O)(=O)c1ccc(C(=O)Nc2nnc(Cc3ccccc3)s2)cc1 | -9.06 | 0.58 µM [falling, partial curve, poor fit] | –
24 | O=c1cc(-c2ccc(Cl)c(Cl)c2)[nH][nH]1 | -20.9 | 1.46 µM [falling, partial curve] | –
25 | COc1ccc(C2Nc3ccccc3C(=O)N2Cc2ccccc2)cc1Cn1nnc2ccccc21 (stereo not given) | -34.5 | – | 14.6 µM [falling, partial curve]
26 | COc1ccc(C(c2c(N)[nH]c(=S)[nH]c2=O)c2c(N)[nH]c(=S)[nH]c2=O)cc1 | 2.54 | – | –
27 | CCc1ccc(-c2cc(N)n(-c3ccccc3)n2)cc1 | -0.848 | – | 0.58 µM [falling, single point]
28 | O=C(Nc1c2c(nc3ccccc13)CCCC2)c1ccccc1F | 5.37 | 0.58 µM [rising, full curve, poor fit] | –
29 | CC(Sc1n[nH]c(=O)n1Cc1ccccc1)C(=O)NC1CCCCC1C (stereo not given) | 35.2 | 14.6 µM [rising, single point] | 10.3 µM [rising, single point]
30 | O=C(Nc1ccc(S(=O)(=O)Nc2ncccn2)cc1)C1CC(=O)N(c2ccccc2)C1 (stereo not given) | -99.5 | – | 29.1 µM [falling, partial curve, poor fit]
31 | CCn1cc(Br)c(C(=O)Nc2ccc(C(=O)OC(C)C)cc2)n1 | -8.85 | 1.03 µM [rising, single point] | –
32 | COc1ccc(CC(NC(C)=O)C(=O)NC2CCN(C(=O)c3ccc(Cl)cc3)CC2)cc1 (stereo not given) | -6.05 | – | –
33 | CC1CCCN(C(=O)C2CCN(c3nc(-c4ccccc4)nc4c3CCC4)CC2)C1 (stereo not given) | 0.867 | 1.46 µM [rising, partial curve] | –
34 | COc1ccc(S(=O)(=O)NCC2CCCN(C(=O)CNC(C)=O)C2)cc1 (stereo not given) | 5.85 | 0.146 µM [falling, full curve] | –
35 | CC(C)CNc1oc(-c2ccc(F)cc2)nc1C#N | – | 0.58 µM [falling, single point] | –
36 | CCOC(=O)c1c(-c2ccc(C)cc2)csc1NC(=O)c1cc2ccccc2oc1=O | -22.8 | 14.6 µM [falling, partial curve] | –
37 | COc1cc(-c2noc(C)c2C(=O)NCCO)cc(OC)c1OC | 5.18 | – | –
38 | COc1cc(C2Nc3cccc4cccc(c34)N2)ccc1OC(C)=O | -4.01 | 4.11 µM [rising, full curve, poor fit] | –
39 | COc1ccc(C(=O)N(Cc2cccs2)C2CCS(=O)(=O)C2)cc1 (stereo not given) | 0.901 | 0.82 µM [rising, full curve] | –
40 | COc1cc(NC(=O)COc2ccccc2[N+](=O)[O-])ccc1NC(=O)c1ccco1 | 38.9 | – | 20.6 µM [rising, single point]
41 | O=C(CS(=O)(=O)c1ccccc1)c1cc2cc(F)ccc2oc1=O | -13 | 6.51 µM [falling, single point] | –
42 | CC(C)C(C(=O)NCC1CCCO1)N(C(=O)CNS(=O)(=O)c1ccc(F)cc1)c1ccccc1 (stereo not given) | -30.8 | – | 29.1 µM [falling, single point]

Row | SMILES | cell number change [%] | AC50 [1] | AC50 [2]
43 | CCOc1cc(CN2CCC(CO)(Cc3cccc(C(F)(F)F)c3)CC2)ccc1OC | 13.4 | 0.231 µM [rising, full curve] | –
44 | C[n+]1ccc(/C=C/c2c[nH]c3ccc(F)cc23)cc1 | -84.7 | 11.6 µM [falling, single point] | 20.6 µM [falling, single point]
45 | C/C(=N\NC(=O)c1c(Cl)c(C)nn1C)c1ccc(NC(=O)C2CCC2)cc1 | -27.7 | 2.91 µM [falling, full curve, poor fit] | –
46 | CCOc1ccccc1NC(=O)c1ccccc1-c1ccccc1 | -15.2 | 0.58 µM [falling, single point] | –
47 | COC(C(=O)Nc1ccc(Cl)cc1C)c1ccccc1 (stereo not given) | 7.58 | 0.231 µM [rising, full curve, poor fit] | –
48 | CC(C)(c1ccccc1)c1ccc(OCCCNCCO)cc1 | -14.2 | 0.731 µM [falling, partial curve] | 0.00461 µM [falling, full curve, poor fit]
49 | O=C(CSCc1ccc(Br)cc1)NCCc1ccccc1 | -0.246 | 7.31 µM [rising, partial curve, poor fit] | –
50 | COc1ccc(CCNC(=O)CSc2nnc3ccc(-c4ccncc4)nn23)cc1 | 10.5 | 3.26 µM [rising, single point] | –
51 | Cc1ccc(S(=O)(=O)N(CC(O)CN2CCCCC2)c2ccccc2)cc1 (stereo not given) | -5.89 | – | –
52 | Cc1ccc(S(=O)(=O)N(C)C)cc1NC(=O)C1Cc2ccccc2CN1C(=O)c1ccco1 (stereo not given) | -14.3 | – | 0.0517 µM [falling, full curve, poor fit]
53 | Cc1ccc(S(=O)(=O)N2CCOCC2)cc1C(=O)Nc1ccccc1N1CCCC1 | 24 | 16.4 µM [rising, partial curve, poor fit] | –
54 | O=C(Nc1ccon1)c1ccccc1F | – | 32.6 µM [falling, partial curve, poor fit] | –
55 | CCn1ccc(C(=O)N2CCOCC2)n1 | -14.6 | 0.731 µM [falling, full curve, poor fit] | –
56 | C=CCn1c(O)c(N=NC(=S)Nc2cccc(OC)c2)c2ccccc21 | -82.1 | 14.6 µM [falling, partial curve] | 14.6 µM [falling, partial curve]
57 | O=C(c1cnc2ccccn2c1=O)N1CCc2ccccc21 | 10.9 | 9.2 µM [falling, partial curve] | –
58 | CC1=NN(C(N)=S)C(=O)C1N=Nc1ccc(Cl)cc1 (stereo not given) | -41.5 | 7.31 µM [falling, partial curve] | 10.3 µM [falling, partial curve]
59 | COc1ccc([C@@H]2CC=C(C(=O)O)[C@H](c3cccc(Cl)c3)N2S(=O)(=O)c2ccc(C)cc2)cc1OC | -4.81 | 0.116 µM [falling, full curve, poor fit] | –
60 | Cc1nn(C(=O)c2cccs2)c(C)c1CN1C(=O)c2ccccc2C1=O | 8.05 | 1.84 µM [rising, partial curve] | –
61 | COc1cccc(-c2nc(CS(=O)(=O)CC(=O)N3CCc4ccccc4C3)c(C)o2)c1 | 17.9 | 1.84 µM [rising, full curve] | 1.64 µM [rising, single point]
